Results published in US20130302250A1 (published 2013).
Numbering of substitutions follows the chain as printed. No constants are given. Whether binding was seen depends on the method and setting. Some entries that bind do so weakly or less than the wild type.

Protein sequences, listed by entry. Tags and fused reporters are not part of them. Residues count along the entry.
UniProt P02770, residues 25-608: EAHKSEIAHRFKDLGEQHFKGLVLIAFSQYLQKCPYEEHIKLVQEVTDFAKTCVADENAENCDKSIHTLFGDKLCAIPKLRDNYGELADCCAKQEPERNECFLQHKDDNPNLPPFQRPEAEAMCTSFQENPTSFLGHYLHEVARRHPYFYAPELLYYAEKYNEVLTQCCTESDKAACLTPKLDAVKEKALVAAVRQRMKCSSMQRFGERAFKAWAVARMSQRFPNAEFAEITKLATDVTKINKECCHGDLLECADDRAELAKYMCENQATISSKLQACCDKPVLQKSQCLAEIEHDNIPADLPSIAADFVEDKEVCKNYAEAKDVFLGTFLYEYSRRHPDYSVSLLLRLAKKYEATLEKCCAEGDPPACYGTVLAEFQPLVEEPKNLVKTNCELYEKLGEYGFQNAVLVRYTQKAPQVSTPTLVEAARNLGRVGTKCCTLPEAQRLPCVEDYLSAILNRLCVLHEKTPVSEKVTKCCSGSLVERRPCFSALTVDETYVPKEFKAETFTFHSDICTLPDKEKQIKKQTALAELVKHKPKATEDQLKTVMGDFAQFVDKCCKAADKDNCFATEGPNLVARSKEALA
UniProt P07724, residues 25-608: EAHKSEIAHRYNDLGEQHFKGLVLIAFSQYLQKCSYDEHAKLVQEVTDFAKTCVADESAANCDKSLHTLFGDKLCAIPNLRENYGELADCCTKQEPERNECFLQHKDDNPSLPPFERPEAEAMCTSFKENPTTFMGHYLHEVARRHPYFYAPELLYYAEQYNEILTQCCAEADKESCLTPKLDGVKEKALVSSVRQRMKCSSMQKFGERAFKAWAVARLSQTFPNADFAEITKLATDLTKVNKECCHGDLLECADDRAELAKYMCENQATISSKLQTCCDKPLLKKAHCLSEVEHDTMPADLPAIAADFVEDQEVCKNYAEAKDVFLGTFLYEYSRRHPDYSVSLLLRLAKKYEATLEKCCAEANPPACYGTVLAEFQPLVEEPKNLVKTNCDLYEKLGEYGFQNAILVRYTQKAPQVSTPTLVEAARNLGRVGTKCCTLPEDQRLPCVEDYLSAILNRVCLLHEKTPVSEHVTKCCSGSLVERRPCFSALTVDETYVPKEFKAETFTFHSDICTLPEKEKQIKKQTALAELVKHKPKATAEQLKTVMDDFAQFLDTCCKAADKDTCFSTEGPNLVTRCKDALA
UniProt P02768, residues 25-609: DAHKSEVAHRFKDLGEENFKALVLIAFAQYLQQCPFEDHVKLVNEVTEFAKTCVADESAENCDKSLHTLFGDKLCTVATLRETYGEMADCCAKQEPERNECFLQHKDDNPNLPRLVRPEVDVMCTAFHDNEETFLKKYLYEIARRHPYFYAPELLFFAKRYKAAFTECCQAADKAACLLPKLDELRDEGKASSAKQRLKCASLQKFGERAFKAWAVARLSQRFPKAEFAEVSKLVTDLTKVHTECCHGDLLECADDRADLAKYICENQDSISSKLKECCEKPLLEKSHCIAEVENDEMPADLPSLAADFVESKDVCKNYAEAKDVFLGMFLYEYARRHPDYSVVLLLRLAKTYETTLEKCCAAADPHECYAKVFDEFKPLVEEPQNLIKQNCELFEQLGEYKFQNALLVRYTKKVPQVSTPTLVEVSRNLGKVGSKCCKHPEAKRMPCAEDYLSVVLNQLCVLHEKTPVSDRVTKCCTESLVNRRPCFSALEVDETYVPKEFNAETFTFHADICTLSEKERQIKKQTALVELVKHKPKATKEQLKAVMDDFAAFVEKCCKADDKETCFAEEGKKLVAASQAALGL

How the values were obtained:
rat serum albumin [1] = target: T1, rat serum albumin (rat, UniProt P02770 25-608); assay: SPR (BIAcore), pH 7.4 and pH 6.0
T1 construct: also called RSA; rat albumin

mouse serum albumin [2] = target: T2, mouse serum albumin (mouse, UniProt P07724 25-608); assay: SPR (BIAcore), pH 7.4 and pH 6.0
T2 construct: also called MSA; mouse albumin

human serum albumin [3] = target: T3, human serum albumin (human, UniProt P02768 25-609); assay: SPR (BIAcore), pH 7.4 and pH 6.0
T3 construct: also called HSA; HAS

rat serum albumin [4] = target: T1, rat serum albumin; assay: SPR (BIAcore), monomeric 6xHis-tagged VNAR
mouse serum albumin [5] = target: T2, mouse serum albumin; assay: SPR (BIAcore), monomeric 6xHis-tagged VNAR
human serum albumin [6] = target: T3, human serum albumin; assay: SPR (BIAcore), monomeric 6xHis-tagged VNAR

Measured: binding

B1: huE06 v1.1 (VNAR)
VNAR: TRVDQSPSSLSASVGDRVTITCVLTDTSYPLYSTYWYQQKPGSSNKEQISISGRYSESVNKGTKSFTLTISSLQPEDFATYYCRAMGTNIWTGDGAGTKVEIKH
notes: Humanized VNAR; also called humanized E06 variant 1.1
binds: all assays above

B2: huE06 v1.10 (VNAR)
VNAR: B1 VNAR with Q38R, Q39K, K40N
notes: Humanized VNAR; also called hE06v1.10
binds: all assays above
